Positions count from the first letter of the chain named. Numbers in names are those of the source. These are yes or no findings as the source states them, for the method shown. Binding seen in cells or lysates may run through a third protein. Some binding calls cover weakened binding; strength is not graded here.
B1: wrmScarlet::TDPT-1 (protein, UniProt Q9XWG3 1-362)
chain: MSNSDDEIQEIEAKRQKMSQEDSEVEIEILDEPEQGKLKNSSMSDEQKLHEFAIITATDEAFAQSILQDVDWDLKKALDVFYGSEAFAEARSAAVMGASSSMASSGAAVMTAEDLKGFEVSVMSWNIDGLDGRSLLTRMKAVAHIVKNVNPDILFLQEVVDRDLAPIDKLQSLYKIYYSNKGCQYYTAILVSKMFDVEKHDVIHFQNSGMYRTLQILEGSIGGLKVFLLNTHLESTREHRPQRCAQFGFCMDKVREIIAQNPGALVFFGGDLNLRDEEVSRVPDGVKDAWEAAGSDNKTKFTWDTFKNDNKQGFHGAKMRFDRLYWSGPLDKVKFTLEGRQRIRSCLCFPSDHWAINATFFA
B2: wrmScarlet::TDPT-1 [G117R] (protein, UniProt Q9XWG3 1-362)
chain: B1 chain with G117R

Amino acid sequences for entries named in this document (tags omitted). A change or cut given only in a name is not applied to a line headed by its entry.
UniProt Q23670: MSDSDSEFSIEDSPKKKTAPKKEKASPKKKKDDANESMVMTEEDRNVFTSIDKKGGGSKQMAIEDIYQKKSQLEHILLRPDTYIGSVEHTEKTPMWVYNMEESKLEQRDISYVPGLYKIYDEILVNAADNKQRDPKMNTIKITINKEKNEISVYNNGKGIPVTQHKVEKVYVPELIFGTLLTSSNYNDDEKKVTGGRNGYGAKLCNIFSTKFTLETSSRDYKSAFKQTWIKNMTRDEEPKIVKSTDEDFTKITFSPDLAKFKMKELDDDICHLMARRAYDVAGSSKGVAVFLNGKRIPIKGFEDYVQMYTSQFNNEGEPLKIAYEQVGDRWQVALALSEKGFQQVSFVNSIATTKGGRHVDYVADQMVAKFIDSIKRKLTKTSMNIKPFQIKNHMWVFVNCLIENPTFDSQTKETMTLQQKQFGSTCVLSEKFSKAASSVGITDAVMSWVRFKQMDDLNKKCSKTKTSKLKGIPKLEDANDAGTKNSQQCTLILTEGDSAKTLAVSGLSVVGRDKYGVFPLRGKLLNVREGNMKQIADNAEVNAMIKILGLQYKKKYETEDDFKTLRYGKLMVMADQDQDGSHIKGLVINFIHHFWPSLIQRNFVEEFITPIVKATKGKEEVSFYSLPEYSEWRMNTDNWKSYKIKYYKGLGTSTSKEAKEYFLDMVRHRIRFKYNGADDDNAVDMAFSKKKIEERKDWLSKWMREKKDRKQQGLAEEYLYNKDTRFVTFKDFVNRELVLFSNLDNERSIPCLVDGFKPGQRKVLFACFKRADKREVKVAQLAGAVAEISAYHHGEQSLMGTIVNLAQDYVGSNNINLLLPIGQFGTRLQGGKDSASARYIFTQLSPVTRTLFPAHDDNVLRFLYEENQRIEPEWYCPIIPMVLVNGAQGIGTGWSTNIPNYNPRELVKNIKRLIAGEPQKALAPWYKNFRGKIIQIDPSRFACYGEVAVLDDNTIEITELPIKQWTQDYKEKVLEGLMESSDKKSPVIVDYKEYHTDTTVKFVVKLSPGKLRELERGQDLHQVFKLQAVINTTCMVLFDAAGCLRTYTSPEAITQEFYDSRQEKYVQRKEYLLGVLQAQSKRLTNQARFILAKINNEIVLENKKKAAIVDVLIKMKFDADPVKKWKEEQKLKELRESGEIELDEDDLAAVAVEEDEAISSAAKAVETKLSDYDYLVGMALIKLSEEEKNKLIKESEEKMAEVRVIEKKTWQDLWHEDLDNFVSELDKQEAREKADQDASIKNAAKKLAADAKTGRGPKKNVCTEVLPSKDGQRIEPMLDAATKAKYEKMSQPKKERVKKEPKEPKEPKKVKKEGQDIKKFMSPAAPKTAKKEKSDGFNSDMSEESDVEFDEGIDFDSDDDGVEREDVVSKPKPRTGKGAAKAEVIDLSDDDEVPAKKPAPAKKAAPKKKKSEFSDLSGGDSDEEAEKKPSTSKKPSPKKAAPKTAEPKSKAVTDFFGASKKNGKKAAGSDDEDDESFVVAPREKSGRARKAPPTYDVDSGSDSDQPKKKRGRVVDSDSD

Tests used:
[1] = target: T1, wrmScarlet::TDPT-1 (C. elegans) (UniProt Q9XWG3); assay: co-IP; reciprocal: IPs of wrmScarlet::TDPT-1 from worm lysates (Fig. S5A)
T1 sequence: B1 chain

[2] = target: TOP-2 [R828C]::3xFLAG (C. elegans) (UniProt Q23670); assay: co-IP; whole-worm lysates (1.5 mg) on anti-FLAG magnetic agarose beads, 1 h at 4 °C, wash buffer 10 mM Tris/Cl pH 7.5, 150 mM NaCl, 0.5 mM EDTA; TOP-2::3xFLAG precipitated, wrmScarlet::TDPT-1 detected by anti-RFP immunoblot
[3] = target: TOP-2::3xFLAG (C. elegans) (UniProt Q23670); assay: as above

Molecule	binding [1]	binding [2]	binding [3]
TOP-2::3xFLAG (from UniProt Q23670 1-1520)	binds	–	–
B1	–	binds	binds
B2	–	binds	binds
